Source: the supplement of paper PMC10735217
Some of the results follow. Single values are uncertain here, since repeats match poorly.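 Human kidney-derived cells stably carry a construct in which eight TEAD-binding elements drive luciferase, measured by luminescence in a drug-repurposing library screen. A hit is any compound whose signal exceeds the plate mean by more than five robust Z scores.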

System: HEK293A TEAD-LUC reporter
Experiment: TEAD-luciferase reporter activity (YAP activation), robust Z score vs plate; higher = stronger YAP/TEAD activation
Settings: 24 h

SMILES | TEAD-luciferase reporter activity (compound concentration: 200 nM) | TEAD-luciferase reporter activity (compound concentration: 2 uM) | TEAD-luciferase reporter activity (compound concentration: 10 uM)
CNC(=O)[C@@H](NC(=O)[C@H](CC(C)C)[C@H](O)C(=O)NO)C(C)(C)C [Marimastat] | inactive: 3.46 | inactive: 0.25 | inactive: 0.297
CCCCC(C)(O)C/C=C/[C@H]1[C@H](O)CC(=O)[C@@H]1CCCCCCC(=O)OC (stereo partly specified) [Misoprostol] | – | – | inactive: 0.93
NC(=O)c1ccc(N(C(N)=O)c2c(F)cccc2F)nc1-c1ccc(F)cc1F | inactive: -1.42 | inactive: -1.71 | inactive: -1.81
CCNCCCNC/C=C\CNCCCNCC | inactive: -1.13 | inactive: -1.66 | inactive: -1.1
COc1cccc(C(=O)NC2CCN(C(=O)c3ccc(-c4cccc(OC)c4)cc3)CC2)c1 | inactive: 2.35 | – | inactive: 0.567
CCCN(CCC)C(=O)C1=Cc2ccc(-c3ccc(C(=O)N4CCCC4)cc3)cc2N=C(N)C1 [Motolimod] | inactive: -0.468 | – | inactive: 0.99
CO[C@H]1C(=O)[C@]2(C)[C@@H](OC)C[C@H]3OCC3(OC(C)=O)[C@H]2[C@H](OC(=O)c2ccccc2)[C@]2(O)C[C@H](OC(=O)[C@H](O)[C@@H](NC(=O)OC(C)(C)C)c3ccccc3)C(C)=C1C2(C)C (stereo partly specified) [cabazitaxel] | inactive: 0.187 | inactive: -2.13 | inactive: 4.57
N=C(N)c1cccc(CCCCC(=O)N[C@@H](CC(=O)O)C(=O)N[C@@H](Cc2ccccc2)C(=O)O)c1 | inactive: 2.96 | inactive: -0.113 | inactive: 0.506
CCCCCCCN(Cc1ccc(CC(C)(C)C)cc1)C(=O)Nc1ccc(F)cc1F | inactive: -1.16 | inactive: -1.27 | inactive: 2.27
OCCN1CCN(c2cc(-c3ccccc3)c(C(F)(F)F)nn2)CC1 | inactive: -1.29 | inactive: -1.87 | inactive: -0.0583
O=C1OC(CN2CCOCC2)CN1/N=C/c1ccc([N+](=O)[O-])o1 (stereo unspecified) | inactive: -0.192 | inactive: 1.75 | inactive: 1.56
C[C@@H](NC(=O)Cc1c(Cl)ccc(NCC(F)(F)c2cccc[n+]2[O-])[n+]1[O-])c1cccc(Cl)c1 | inactive: 0.791 | inactive: 0.768 | inactive: 2.83
NS(=O)(=O)c1ccc(N2N=C(C(F)(F)F)CC2c2c[nH]c3cc(Cl)ccc23)cc1 (stereo unspecified) [onconoxib] | inactive: -0.443 | inactive: 0.385 | inactive: 2.05
CNC1CN(c2c(F)cc3c(=O)c(C(=O)O)cn(-c4nc(N)c(F)cc4F)c3c2Br)C1 | inactive: 1.31 | inactive: 0.629 | inactive: 2.8
N=C(N)c1ccc(CNC(=O)[C@H](Cc2cccc(CN)c2)NC(=O)[C@@H](CCCc2ccccc2)NS(=O)(=O)Cc2cccc(C(=O)O)c2)cc1 | inactive: -0.944 | inactive: -1.34 | inactive: -0.783
Cc1cc(NS(=O)(=O)c2ccccc2)n(-c2ccccc2)n1 | inactive: -0.86 | inactive: -0.437 | inactive: 1.94
CCC(C(=O)O)c1ccc(CC(C)C)cc1 (stereo unspecified) [butibufen] | inactive: 0.838 | inactive: -1.73 | inactive: 0.324
CCOC1c2ccccc2C(=O)N(C)c2ccccc21 (stereo unspecified) [etazepine] | inactive: 1.26 | inactive: 0.672 | inactive: -0.204
O=C(CCc1c[nH]c2ccccc12)N1CCc2[nH]c3ccc(F)cc3c2C1 | inactive: -0.545 | inactive: -1.46 | inactive: -1.31
Cc1cc2[nH]c(=N)[nH]c(=N)n2n1 [dametralast] | inactive: -2.41 | inactive: -2.9 | inactive: -2.39
CN(C)CCC(c1ccc(Cl)cc1)c1ccccn1 (stereo unspecified) [chlorphenamine, Alza] | – | inactive: 0.603 | –
CN(C)CCC(c1ccc(Cl)cc1)c1ccccn1 (stereo unspecified) [Chlorpheniramine113-92-8] | inactive: -0.255 | – | inactive: 1.45
C[N+](C)(C)CCOP(=O)(O)OCC(O)CO [choline-L-alfoscerate] | inactive: -0.482 | inactive: -1.51 | inactive: 4
CCCN1C[C@H](C)[C@@H](O)[C@](C)(O)C(CC)OC(=O)[C@H](C)C(O[C@H]2C[C@@](C)(OC)[C@@H](O)[C@H](C)O2)[C@H](C)[C@@H](O[C@@H]2O[C@H](C)C[C@H](N(C)C)[C@H]2O)[C@](C)(O)C[C@H]1C (stereo partly specified) [Gamithromycin] | inactive: -0.161 | – | inactive: 0.415
O=C(NC1CC1)c1ccc(-n2cnc3ccccc3c2=O)cc1 | inactive: -1.88 | inactive: -1.19 | inactive: 3.52
CC1(C)OC2CC3C4CC(F)C5=CC(=O)C=CC5(C)C4(F)C(O)CC3(C)C2(C(=O)CO)O1 (stereo unspecified) [fluocinolone acetonide] | inactive: 0.17 | inactive: 0.822 | inactive: 2.32
Cc1c(F)cc2c(=O)c(C(=O)O)cn3c2c1CCC3C (stereo unspecified) [ibafloxacin] | inactive: -1.06 | inactive: -0.573 | inactive: -1.31

SMILES | TEAD-luciferase reporter activity (compound concentration: 200 nM) | TEAD-luciferase reporter activity (compound concentration: 2 uM) | TEAD-luciferase reporter activity (compound concentration: 10 uM)
N#Cc1cc(-c2nc(-c3ccncc3)n[nH]2)ccn1 [topiroxostat] | inactive: 2.17 | inactive: -0.558 | inactive: -1.56
Cc1ccc(Sc2ccccc2C2CCNCC2)cc1 | inactive: 0.815 | inactive: -1.07 | inactive: 2.7
CCCOc1ccc2nc(NC(=O)OC)sc2c1 [Tioxidazole] | inactive: 1.41 | inactive: -0.892 | inactive: 1.62
CCCc1nn(C)c2c(=O)nc(-c3cc(S(=O)(=O)N4CCN(CCO)CC4)ccc3OCC)[nH]c12 | inactive: 0.124 | – | inactive: 3.37
CCCc1nn(C)c2c(=O)nc(-c3cc(S(=O)(=O)N4CCN(CCO)CC4)ccc3OCC)[nH]c12 [Lodenafil] | – | inactive: -1.23 | –
CC[N+](C)(C)Cc1ccccc1Br [Bretylium tosilate] | inactive: -1.89 | inactive: 0.71 | inactive: -0.369
C=C1C[C@@H](O)[C@H](/C=C/[C@@H](O)C(C)(C)CCCC)[C@H]1C/C=C\CCCC(=O)O [Meteneprost] | inactive: 0.275 | inactive: -1.89 | inactive: -1.15
O=C1CC2CCCC(C1)N2C(=O)c1ccc(F)cc1 | inactive: 0.961 | – | active: 5.06
Cc1cc(NC(=O)NCCN2CCC(O)(Cc3ccccc3)CC2)c2ccccc2n1 [Palosuran] | inactive: 2.31 | inactive: -0.248 | inactive: 2.5
O=C(CCCCCCNC(=O)c1cnc(N(c2ccccc2)c2ccccc2Cl)nc1)NO [Citarinostat] | inactive: -0.41 | active: 9.05 | inactive: 2.98
O=C1c2c(O)ccc(O)c2C(=O)c2c(NCCNCCO)ccc(NCCNCCO)c21 [mitoxantrone] | – | active: 6.77 | –
O=C1c2c(O)ccc(O)c2C(=O)c2c(NCCNCCO)ccc(NCCNCCO)c21 | inactive: -0.241 | – | inactive: -0.0646
CC(C)[C@H](N)C(=O)N1CCC[C@H]1C(=O)N1CCC[C@H]1C(=O)O | inactive: -1.52 | inactive: -0.345 | inactive: 4.45
CC(=O)N1CCN(CCN2[C@@H]3CC[C@H]2C[C@@H](NC(=O)c2nn(C(C)C)c4ccccc24)C3)CC1 | inactive: -2.13 | inactive: -0.581 | inactive: -0.461
O=C(Nc1ccncc1)NN1CC=CCC1 | inactive: -0.226 | inactive: -1.14 | inactive: -0.521
Nc1cccc(CN2C(=O)N(Cc3ccc4[nH]ncc4c3)[C@H](Cc3ccccc3)[C@H](O)[C@@H](O)[C@H]2Cc2ccccc2)c1 | inactive: -0.0244 | inactive: 1.34 | inactive: -0.457
O=c1c(CO)coc2cc(OCCCN3CCC(c4noc5cc(F)ccc45)CC3)ccc12 | inactive: -1.34 | inactive: 0.232 | inactive: 0.348
CCN(CC)CCC1(c2ccccc2)CCC(=O)NC1=O (stereo unspecified) | inactive: -1.37 | inactive: -0.0492 | inactive: -0.17
COc1c(C)c2c(c(O)c1C/C=C(\C)CCC(=O)O)C(=O)OC2 [Mycophenolic Acid] | inactive: -0.317 | – | inactive: 0.785
COc1c(C)c2c(c(O)c1C/C=C(\C)CCC(=O)O)C(=O)OC2 [Mycophenolic Acid Sodium] | – | inactive: 0.65 | –
Cc1oc(=O)oc1COC(=O)[C@@H]1N2C(=O)[C@@H](NC(=O)[C@H](N)c3ccccc3)[C@H]2SC1(C)C [lenampicillin] | inactive: -1.48 | inactive: -0.273 | inactive: -1.63
Cc1oc(=O)oc1CN1CCN(c2cc3c(cc2F)c(=O)c(C(=O)O)c2n3C(C)S2)CC1 (stereo unspecified) [prulifloxacin] | inactive: -0.416 | inactive: -0.589 | inactive: -1
COc1c(OC)c(OC)c2c(c1O)c(=O)c1ccc(O)c(OC)c1n2C | inactive: -1.43 | inactive: -0.436 | inactive: 1.62
CCOc1ccc(CC2NC(=O)CCSSCC(C(=O)N3CCCC3C(=O)NC(CC(C)C)C(=O)NCC(N)=O)NC(=O)C(CC(N)=O)NC(=O)C(CCC(N)=O)NC(=O)C(C(C)CC)NC2=O)cc1 (stereo unspecified) [deamino-ethyl-oxytocin] | inactive: 1.49 | inactive: 0.521 | inactive: -0.00476
CCCC(Oc1c(Cl)cccc1COc1ccc(OCc2ccc3ccccc3n2)cc1)C(=O)O (stereo unspecified) | inactive: -1.48 | inactive: 0.502 | inactive: 0.236
CN(C)CCC=C1c2ccccc2CCc2ccccc21 [amitriptyline, Elan] | – | inactive: -1.34 | –
CN(C)CCC=C1c2ccccc2CCc2ccccc21 [Annoyltin] | inactive: -1.28 | – | inactive: 1.35

Single records, as listed above.
COc1c(C)c2c(c(O)c1C/C=C(\C)CCC(=O)O)C(=O)OC2 [Mycophenolic Acid Sodium] is listed with TEAD-luciferase reporter activity (compound concentration: 2 uM): inactive: 0.65
Cc1oc(=O)oc1CN1CCN(c2cc3c(cc2F)c(=O)c(C(=O)O)c2n3C(C)S2)CC1 (stereo unspecified) [prulifloxacin] is listed with TEAD-luciferase reporter activity (compound concentration: 200 nM): inactive: -0.416; TEAD-luciferase reporter activity (compound concentration: 2 uM): inactive: -0.589; TEAD-luciferase reporter activity (compound concentration: 10 uM): inactive: -1
CCCc1nn(C)c2c(=O)nc(-c3cc(S(=O)(=O)N4CCN(CCO)CC4)ccc3OCC)[nH]c12 [Lodenafil] is listed with TEAD-luciferase reporter activity (compound concentration: 2 uM): inactive: -1.23
NC(=O)c1ccc(N(C(N)=O)c2c(F)cccc2F)nc1-c1ccc(F)cc1F is listed with TEAD-luciferase reporter activity (compound concentration: 200 nM): inactive: -1.42; TEAD-luciferase reporter activity (compound concentration: 2 uM): inactive: -1.71; TEAD-luciferase reporter activity (compound concentration: 10 uM): inactive: -1.81
